# Source: paper PMC9691929
# Amino acid sequences for entries named in this document (tags omitted). Residues count along the entry.
# UniProt P23284, residues 34-216: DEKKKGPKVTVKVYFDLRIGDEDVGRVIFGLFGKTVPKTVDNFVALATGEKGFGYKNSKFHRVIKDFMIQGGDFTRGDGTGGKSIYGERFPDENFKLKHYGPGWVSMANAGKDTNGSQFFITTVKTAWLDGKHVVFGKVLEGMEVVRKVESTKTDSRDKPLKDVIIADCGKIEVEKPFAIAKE
# UniProt Q15005: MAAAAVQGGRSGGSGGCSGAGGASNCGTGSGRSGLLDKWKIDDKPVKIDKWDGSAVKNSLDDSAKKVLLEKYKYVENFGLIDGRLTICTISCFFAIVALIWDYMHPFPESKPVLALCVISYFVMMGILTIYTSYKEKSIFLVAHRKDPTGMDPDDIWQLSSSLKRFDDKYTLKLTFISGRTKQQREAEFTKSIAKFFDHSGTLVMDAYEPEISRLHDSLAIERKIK
# UniProt P30101, residues 25-505: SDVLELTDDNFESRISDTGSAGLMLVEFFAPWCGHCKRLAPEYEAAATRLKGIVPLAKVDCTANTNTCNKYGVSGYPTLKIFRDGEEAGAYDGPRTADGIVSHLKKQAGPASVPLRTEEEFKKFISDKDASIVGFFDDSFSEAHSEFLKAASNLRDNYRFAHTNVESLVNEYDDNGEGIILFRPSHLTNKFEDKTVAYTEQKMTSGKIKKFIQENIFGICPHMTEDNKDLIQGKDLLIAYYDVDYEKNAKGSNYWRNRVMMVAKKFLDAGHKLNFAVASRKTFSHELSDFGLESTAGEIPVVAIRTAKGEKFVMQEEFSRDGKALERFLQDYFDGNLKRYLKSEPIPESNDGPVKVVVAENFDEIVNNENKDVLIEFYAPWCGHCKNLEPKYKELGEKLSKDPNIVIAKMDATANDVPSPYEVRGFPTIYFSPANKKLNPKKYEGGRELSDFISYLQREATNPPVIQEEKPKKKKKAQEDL
# UniProt P14625, residues 22-803: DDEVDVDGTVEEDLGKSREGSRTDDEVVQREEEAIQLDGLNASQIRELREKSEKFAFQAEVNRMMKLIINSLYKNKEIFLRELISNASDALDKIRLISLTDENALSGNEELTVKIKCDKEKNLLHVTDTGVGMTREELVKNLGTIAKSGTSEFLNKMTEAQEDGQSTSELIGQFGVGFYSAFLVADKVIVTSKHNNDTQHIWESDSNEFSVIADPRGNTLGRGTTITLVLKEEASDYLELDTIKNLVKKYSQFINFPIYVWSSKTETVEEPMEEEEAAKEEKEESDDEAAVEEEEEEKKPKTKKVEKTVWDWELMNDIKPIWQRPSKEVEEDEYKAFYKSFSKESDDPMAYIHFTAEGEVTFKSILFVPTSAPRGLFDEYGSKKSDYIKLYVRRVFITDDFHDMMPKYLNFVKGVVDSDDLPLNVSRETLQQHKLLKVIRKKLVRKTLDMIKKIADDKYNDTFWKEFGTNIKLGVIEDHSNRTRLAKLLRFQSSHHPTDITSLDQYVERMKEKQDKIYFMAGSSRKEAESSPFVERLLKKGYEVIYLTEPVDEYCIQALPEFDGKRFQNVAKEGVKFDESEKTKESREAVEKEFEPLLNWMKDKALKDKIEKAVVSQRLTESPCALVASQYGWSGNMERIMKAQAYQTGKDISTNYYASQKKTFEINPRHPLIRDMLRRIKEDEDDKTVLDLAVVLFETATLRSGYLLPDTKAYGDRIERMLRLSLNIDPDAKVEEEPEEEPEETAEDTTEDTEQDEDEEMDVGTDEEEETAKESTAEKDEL
# UniProt P11021, residues 19-654: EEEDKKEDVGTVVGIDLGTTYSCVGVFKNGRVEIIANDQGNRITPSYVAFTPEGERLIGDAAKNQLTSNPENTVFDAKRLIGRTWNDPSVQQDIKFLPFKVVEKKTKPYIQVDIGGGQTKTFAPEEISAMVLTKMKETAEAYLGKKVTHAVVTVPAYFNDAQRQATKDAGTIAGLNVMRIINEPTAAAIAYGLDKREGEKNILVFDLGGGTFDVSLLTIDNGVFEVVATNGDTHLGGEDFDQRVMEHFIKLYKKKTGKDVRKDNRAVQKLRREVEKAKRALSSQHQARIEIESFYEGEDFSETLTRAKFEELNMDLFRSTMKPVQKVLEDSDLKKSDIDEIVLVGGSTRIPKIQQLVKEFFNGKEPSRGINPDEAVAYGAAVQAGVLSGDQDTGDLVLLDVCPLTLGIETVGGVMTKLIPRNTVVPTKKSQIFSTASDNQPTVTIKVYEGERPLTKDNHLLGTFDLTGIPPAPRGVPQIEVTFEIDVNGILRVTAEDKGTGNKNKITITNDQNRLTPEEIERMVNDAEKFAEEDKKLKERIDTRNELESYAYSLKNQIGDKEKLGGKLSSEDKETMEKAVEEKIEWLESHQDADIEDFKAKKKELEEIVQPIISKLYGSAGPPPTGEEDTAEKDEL
# UniProt P61619: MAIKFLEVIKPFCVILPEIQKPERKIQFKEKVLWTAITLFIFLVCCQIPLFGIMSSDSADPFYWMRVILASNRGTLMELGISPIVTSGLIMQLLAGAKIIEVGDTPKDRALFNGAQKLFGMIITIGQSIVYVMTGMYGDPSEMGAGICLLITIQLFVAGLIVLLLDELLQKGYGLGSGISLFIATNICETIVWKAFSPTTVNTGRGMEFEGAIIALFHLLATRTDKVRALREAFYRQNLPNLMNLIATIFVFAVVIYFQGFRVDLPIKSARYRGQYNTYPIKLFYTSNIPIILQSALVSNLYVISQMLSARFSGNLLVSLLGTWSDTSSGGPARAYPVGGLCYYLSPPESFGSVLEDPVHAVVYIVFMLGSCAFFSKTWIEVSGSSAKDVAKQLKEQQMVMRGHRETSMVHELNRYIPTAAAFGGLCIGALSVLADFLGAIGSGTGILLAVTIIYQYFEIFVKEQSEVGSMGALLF
# UniProt P27824, residues 21-592: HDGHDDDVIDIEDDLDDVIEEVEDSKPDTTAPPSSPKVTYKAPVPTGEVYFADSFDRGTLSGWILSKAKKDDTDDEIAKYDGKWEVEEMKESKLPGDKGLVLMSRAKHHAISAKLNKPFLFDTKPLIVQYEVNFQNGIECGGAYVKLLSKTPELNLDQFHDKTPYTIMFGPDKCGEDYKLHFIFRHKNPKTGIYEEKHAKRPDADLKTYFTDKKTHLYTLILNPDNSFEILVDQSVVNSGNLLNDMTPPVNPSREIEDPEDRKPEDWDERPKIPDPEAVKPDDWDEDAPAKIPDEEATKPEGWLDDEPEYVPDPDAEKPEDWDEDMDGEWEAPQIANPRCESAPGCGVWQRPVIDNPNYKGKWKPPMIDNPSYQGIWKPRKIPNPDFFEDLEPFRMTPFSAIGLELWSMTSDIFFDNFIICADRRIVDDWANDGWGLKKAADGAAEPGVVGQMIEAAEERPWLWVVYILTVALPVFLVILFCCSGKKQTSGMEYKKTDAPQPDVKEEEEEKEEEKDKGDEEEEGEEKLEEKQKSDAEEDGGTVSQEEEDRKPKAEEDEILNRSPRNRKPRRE
# UniProt Q969V3, residues 43-563: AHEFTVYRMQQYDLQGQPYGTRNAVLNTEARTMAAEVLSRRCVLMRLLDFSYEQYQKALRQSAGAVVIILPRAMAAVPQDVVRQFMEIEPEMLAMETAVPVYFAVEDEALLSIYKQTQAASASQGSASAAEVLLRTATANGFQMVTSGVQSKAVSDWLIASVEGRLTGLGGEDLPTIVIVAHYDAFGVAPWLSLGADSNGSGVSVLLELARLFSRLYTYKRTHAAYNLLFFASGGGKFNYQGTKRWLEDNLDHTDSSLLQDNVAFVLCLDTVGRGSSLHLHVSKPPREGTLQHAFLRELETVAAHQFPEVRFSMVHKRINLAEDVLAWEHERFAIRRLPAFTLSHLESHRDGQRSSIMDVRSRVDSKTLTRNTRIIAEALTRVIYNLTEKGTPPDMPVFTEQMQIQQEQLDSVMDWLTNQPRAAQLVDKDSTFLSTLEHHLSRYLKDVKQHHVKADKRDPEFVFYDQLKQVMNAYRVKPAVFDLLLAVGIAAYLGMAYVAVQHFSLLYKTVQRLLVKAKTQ
# UniProt P60468: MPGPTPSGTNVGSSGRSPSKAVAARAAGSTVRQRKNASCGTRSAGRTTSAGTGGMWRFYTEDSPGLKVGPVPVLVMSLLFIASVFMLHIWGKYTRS
# UniProt Q9UBS4, residues 23-358: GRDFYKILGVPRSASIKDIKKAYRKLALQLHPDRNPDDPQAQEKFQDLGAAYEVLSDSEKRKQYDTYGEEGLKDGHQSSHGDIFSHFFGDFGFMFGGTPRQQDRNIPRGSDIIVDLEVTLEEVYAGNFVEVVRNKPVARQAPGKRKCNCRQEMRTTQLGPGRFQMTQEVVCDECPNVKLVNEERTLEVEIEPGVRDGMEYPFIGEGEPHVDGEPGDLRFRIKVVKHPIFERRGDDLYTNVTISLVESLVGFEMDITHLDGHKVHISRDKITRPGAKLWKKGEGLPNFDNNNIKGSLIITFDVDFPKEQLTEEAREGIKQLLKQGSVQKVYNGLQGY
# UniProt Q9UGP8: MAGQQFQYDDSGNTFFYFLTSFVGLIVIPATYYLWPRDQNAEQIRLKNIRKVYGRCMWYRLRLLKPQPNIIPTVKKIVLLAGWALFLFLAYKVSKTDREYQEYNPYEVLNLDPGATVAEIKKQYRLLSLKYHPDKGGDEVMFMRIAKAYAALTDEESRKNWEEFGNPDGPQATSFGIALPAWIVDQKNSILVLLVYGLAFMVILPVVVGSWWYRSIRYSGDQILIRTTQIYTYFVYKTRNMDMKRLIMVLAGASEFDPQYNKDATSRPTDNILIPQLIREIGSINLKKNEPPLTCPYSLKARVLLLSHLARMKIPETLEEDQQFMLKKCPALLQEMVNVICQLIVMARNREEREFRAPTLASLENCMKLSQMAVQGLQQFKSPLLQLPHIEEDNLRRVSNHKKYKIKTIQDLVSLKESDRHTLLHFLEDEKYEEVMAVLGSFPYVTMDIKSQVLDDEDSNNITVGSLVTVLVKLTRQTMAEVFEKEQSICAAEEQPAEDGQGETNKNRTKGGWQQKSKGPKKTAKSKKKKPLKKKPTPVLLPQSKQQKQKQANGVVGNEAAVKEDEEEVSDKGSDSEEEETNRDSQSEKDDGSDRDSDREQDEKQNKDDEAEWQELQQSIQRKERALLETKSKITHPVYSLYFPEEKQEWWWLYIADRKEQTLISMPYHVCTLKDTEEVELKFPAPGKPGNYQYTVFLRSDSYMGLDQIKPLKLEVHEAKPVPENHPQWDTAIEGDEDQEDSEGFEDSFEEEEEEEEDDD
# Results are given in words; binding and its absence hold for the method and conditions named. In cells and extracts the contact can be indirect. Here binding means that the protein was enriched with, or labelled near, the bait; the list need not be complete. Where a sequence is shown, tags or fusion partners need not be part of it.
# T1: Hspa13 with a C-terminal Flag (human) (UniProt P48723)
# T1 sequence: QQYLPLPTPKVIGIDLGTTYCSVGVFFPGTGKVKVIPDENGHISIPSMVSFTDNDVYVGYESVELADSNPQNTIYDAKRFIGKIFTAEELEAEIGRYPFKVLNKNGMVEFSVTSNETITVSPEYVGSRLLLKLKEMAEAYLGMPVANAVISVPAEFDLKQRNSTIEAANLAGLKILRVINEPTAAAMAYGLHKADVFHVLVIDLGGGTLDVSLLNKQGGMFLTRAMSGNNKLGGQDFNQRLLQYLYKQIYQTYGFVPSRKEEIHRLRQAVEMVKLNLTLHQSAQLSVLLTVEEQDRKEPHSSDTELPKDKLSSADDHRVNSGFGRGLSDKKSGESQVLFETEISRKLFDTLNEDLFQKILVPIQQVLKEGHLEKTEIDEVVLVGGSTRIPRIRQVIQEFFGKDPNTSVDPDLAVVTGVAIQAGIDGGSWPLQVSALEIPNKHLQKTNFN
# B1: SPCS3 (protein, UniProt P61009 1-180)
# chain: MNTVLSRANSLFAFSLSVMAALTFGCFITTAFKDRSVPVRLHVSRIMLKNVEDFTGPRERSDLGFITFDITADLENIFDWNVKQLFLYLSAEYSTKNNALNQVVLWDKIVLRGDNPKLLLKDMKTKYFFFDDGNGLKGNRNVTLTLSWNVVPNAGILPLVTGSGHVSVPFPDTYEITKSY
# B2: DDOST (protein, UniProt P39656 43-456)
# chain: SGPRTLVLLDNLNVRETHSLFFRSLKDRGFELTFKTADDPSLSLIKYGEFLYDNLIIFSPSVEDFGGNINVETISAFIDGGGSVLVAASSDIGDPLRELGSECGIEFDEEKTAVIDHHNYDISDLGQHTLIVADTENLLKAPTIVGKSSLNPILFRGVGMVADPDNPLVLDILTGSSTSYSFFPDKPITQYPHAVGKNTLLIAGLQARNNARVIFSGSLDFFSDSFFNSAVQKAAPGSQRYSQTGNYELAVALSRWVFKEEGVLRVGPVSHHRVGETAPPNAYTVTDLVEYSIVIQQLSNGKWVPFDGDDIQLEFVRIDPFVRTFLKKKGGKYSVQFKLPDVYGVFQFKVDYNRLGYTHLYSSTQVSVRPLQHTQYERFIPSAYPYYASAFSMMLGLFIFSIVFLHMKEKEKSD
# B3: MAGT1 (protein, UniProt Q9H0U3 30-335)
# chain: QRKKEMVLSEKVSQLMEWTNKRPVIRMNGDKFRRLVKAPPRNYSVIVMFTALQLHRQCVVCKQADEEFQILANSWRYSSAFTNRIFFAMVDFDEGSDVFQMLNMNSAPTFINFPAKGKPKRGDTYELQVRGFSAEQIARWIADRTDVNIRVIRPPNYAGPLMLGLLLAVIGGLVYLRRSNMEFLFNKTGWAFAALCFVLAMTSGQMWNHIRGPPYAHKNPHTGHVNYIHGSSQAQFVAETHIVLLFNGGVTLGMVLLCEAATSDMDIGKRKIMCVAGIGLVVLFFSWMLSIFRSKYHGYPYSFLMS
# B4: STT3A (protein, UniProt P46977 1-705)
# chain: MTKFGFLRLSYEKQDTLLKLLILSMAAVLSFSTRLFAVLRFESVIHEFDPYFNYRTTRFLAEEGFYKFHNWFDDRAWYPLGRIIGGTIYPGLMITSAAIYHVLHFFHITIDIRNVCVFLAPLFSSFTTIVTYHLTKELKDAGAGLLAAAMIAVVPGYISRSVAGSYDNEGIAIFCMLLTYYMWIKAVKTGSICWAAKCALAYFYMVSSWGGYVFLINLIPLHVLVLMLTGRFSHRIYVAYCTVYCLGTILSMQISFVGFQPVLSSEHMAAFGVFGLCQIHAFVDYLRSKLNPQQFEVLFRSVISLVGFVLLTVGALLMLTGKISPWTGRFYSLLDPSYAKNNIPIIASVSEHQPTTWSSYYFDLQLLVFMFPVGLYYCFSNLSDARIFIIMYGVTSMYFSAVMVRLMLVLAPVMCILSGIGVSQVLSTYMKNLDISRPDKKSKKQQDSTYPIKNEVASGMILVMAFFLITYTFHSTWVTSEAYSSPSIVLSARGGDGSRIIFDDFREAYYWLRHNTPEDAKVMSWWDYGYQITAMANRTILVDNNTWNNTHISRVGQAMASTEEKAYEIMRELDVSYVLVIFGGLTGYSSDDINKFLWMVRIGGSTDTGKHIKENDYYTPTGEFRVDREGSPVLLNCLMYKMCYYRFGQVYTEAKRPPGFDRVRNAEIGNKDFELDVLEEAYTTEHWLVRIYKVKDLDNRGLSRT
# B5: RPN1 (protein, UniProt P04843 24-607)
# chain: ASSEAPPLINEDVKRTVDLSSHLAKVTAEVVLAHLGGGSTSRATSFLLALEPELEARLAHLGVQVKGEDEEENNLEVRETKIKGKSGRFFTVKLPVALDPGAKISVIVETVYTHVLHPYPTQITQSEKQFVVFEGNHYFYSPYPTKTQTMRVKLASRNVESYTKLGNPTRSEDLLDYGPFRDVPAYSQDTFKVHYENNSPFLTITSMTRVIEVSHWGNIAVEENVDLKHTGAVLKGPFSRYDYQRQPDSGISSIRSFKTILPAAAQDVYYRDEIGNVSTSHLLILDDSVEMEIRPRFPLFGGWKTHYIVGYNLPSYEYLYNLGDQYALKMRFVDHVFDEQVIDSLTVKIILPEGAKNIEIDSPYEISRAPDELHYTYLDTFGRPVIVAYKKNLVEQHIQDIVVHYTFNKVLMLQEPLLVVAAFYILFFTVIIYVRLDFSITKDPAAEARMKVACITEQVLTLVNKRIGLYRHFDETVNRYKQSRDISTLNSGKKSLETEHKALTSEIALLQSRLKTEGSDLCDRVSEMQKLDAQVKELVLKSAVEAERLVAGKLKKDTYIENEKLISGKRQELVTKIDHILDAL
# B6: SEC11A (protein, UniProt P67812 1-179)
# chain: MLSLDFLDDVRRMNKRQLYYQVLNFGMIVSSALMIWKGLMVITGSESPIVVVLSGSMEPAFHRGDLLFLTNRVEDPIRVGEIVVFRIEGREIPIVHRVLKIHEKQNGHIKFLTKGDNNAVDDRGLYKQGQHWLEKKDVVGRARGFVPYIGIVTILMNDYPKFKYAVLFLLGLFVLVHRE
# B7: Hsp47 (protein, UniProt P50454 19-418)
# chain: AEVKKPAAAAAPGTAEKLSPKAATLAERSAGLAFSLYQAMAKDQAVENILVSPVVVASSLGLVSLGGKATTASQAKAVLSAEQLRDEEVHAGLGELLRSLSNSTARNVTWKLGSRLYGPSSVSFADDFVRSSKQHYNCEHSKINFRDKRSALQSINEWAAQTTDGKLPEVTKDVERTDGALLVNAMFFKPHWDEKFHHKMVDNRGFMVTRSYTVGVMMMHRTGLYNYYDDEKEKLQIVEMPLAHKLSSLIILMPHHVEPLERLEKLLTKEQLKIWMGKMQKKAVAISLPKGVVEVTHDLQKHLAGLGLTEAIDKNKADLSRMSGKKDLYLASVFHATAFELDTDGNPFDQDIYGREELRSPKLFYADHPFIFLVRDTQSGSLLFIGRLVRPKGDKMRDEL
# B8: STT3B (protein, UniProt Q8TCJ2 1-826)
# chain: MAEPSAPESKHKSSLNSSPWSGLMALGNSRHGHHGPGAQCAHKAAGGAAPPKPAPAGLSGGLSQPAGWQSLLSFTILFLAWLAGFSSRLFAVIRFESIIHEFDPWFNYRSTHHLASHGFYEFLNWFDERAWYPLGRIVGGTVYPGLMITAGLIHWILNTLNITVHIRDVCVFLAPTFSGLTSISTFLLTRELWNQGAGLLAACFIAIVPGYISRSVAGSFDNEGIAIFALQFTYYLWVKSVKTGSVFWTMCCCLSYFYMVSAWGGYVFIINLIPLHVFVLLLMQRYSKRVYIAYSTFYIVGLILSMQIPFVGFQPIRTSEHMAAAGVFALLQAYAFLQYLRDRLTKQEFQTLFFLGVSLAAGAVFLSVIYLTYTGYIAPWSGRFYSLWDTGYAKIHIPIIASVSEHQPTTWVSFFFDLHILVCTFPAGLWFCIKNINDERVFVALYAISAVYFAGVMVRLMLTLTPVVCMLSAIAFSNVFEHYLGDDMKRENPPVEDSSDEDDKRNQGNLYDKAGKVRKHATEQEKTEEGLGPNIKSIVTMLMLMLLMMFAVHCTWVTSNAYSSPSVVLASYNHDGTRNILDDFREAYFWLRQNTDEHARVMSWWDYGYQIAGMANRTTLVDNNTWNNSHIALVGKAMSSNETAAYKIMRTLDVDYVLVIFGGVIGYSGDDINKFLWMVRIAEGEHPKDIRESDYFTPQGEFRVDKAGSPTLLNCLMYKMSYYRFGEMQLDFRTPPGFDRTRNAEIGNKDIKFKHLEEAFTSEHWLVRIYKVKAPDNRETLDHKPRVTNIFPKQKYLSKKTTKRKRGYIKNKLVFKKGKKISKKTV
# B9: GANAB (protein, UniProt Q14697 29-944)
# chain: ITLAVDRSNFKTCEESSFCKRQRSIRPGLSPYRALLDSLQLGPDSLTVHLIHEVTKVLLVLELQGLQKNMTRFRIDELEPRRPRYRVPDVLVADPPIARLSVSGRDENSVELTMAEGPYKIILTARPFRLDLLEDRSLLLSVNARGLLEFEHQRAPRVSQGSKDPAEGDGAQPEETPRDGDKPEETQGKAEKDEPGAWEETFKTHSDSKPYGPMSVGLDFSLPGMEHVYGIPEHADNLRLKVTEGGEPYRLYNLDVFQYELYNPMALYGSVPVLLAHNPHRDLGIFWLNAAETWVDISSNTAGKTLFGKMMDYLQGSGETPQTDVRWMSETGIIDVFLLLGPSISDVFRQYASLTGTQALPPLFSLGYHQSRWNYRDEADVLEVDQGFDDHNLPCDVIWLDIEHADGKRYFTWDPSRFPQPRTMLERLASKRRKLVAIVDPHIKVDSGYRVHEELRNLGLYVKTRDGSDYEGWCWPGSAGYPDFTNPTMRAWWANMFSYDNYEGSAPNLFVWNDMNEPSVFNGPEVTMLKDAQHYGGWEHRDVHNIYGLYVHMATADGLRQRSGGMERPFVLARAFFAGSQRFGAVWTGDNTAEWDHLKISIPMCLSLGLVGLSFCGADVGGFFKNPEPELLVRWYQMGAYQPFFRAHAHLDTGRREPWLLPSQHNDIIRDALGQRYSLLPFWYTLLYQAHREGIPVMRPLWVQYPQDVTTFNIDDQYLLGDALLVHPVSDSGAHGVQVYLPGQGEVWYDIQSYQKHHGPQTLYLPVTLSSIPVFQRGGTIVPRWMRVRRSSECMKDDPITLFVALSPQGTAQGELFLDDGHTFNYQTRQEFLLRRFSFSGNTLVSSSADPEGHFETPIWIERVVIIGAGKPAAVVLQTKGSPESRLSFQHDPETSVLVLRKPGINVASDWSIHLR
# Target: T1, Hspa13 with a C-terminal Flag (human)
# Assay: affinity purification with mass spectrometry; HEK293T overexpressing Hspa13^Flag or mock (eGFP), crosslinked in cells with 1 mM DSP for 30 min, quenched, lysed; M2 anti-Flag Dynabeads; stringent RIPA washes; TMT, MuDPIT; 5% FDR
row,binding,Molecule
1,binds,PPIB (from UniProt P23284 34-216)
2,binds,SPCS2 (from UniProt Q15005 1-226)
3,binds,PDIA3 (from UniProt P30101 25-505)
4,binds,Grp94/HSPB90B1 (from UniProt P14625 22-803)
5,binds,"binding immunoglobulin protein (BiP), endogenous (from UniProt P11021 19-654)"
6,binds,Sec61a1 (from UniProt P61619 1-476)
7,binds,calnexin (from UniProt P27824 21-592)
8,binds,NCLN (from UniProt Q969V3 43-563)
9,binds,Sec61b (from UniProt P60468 1-96)
10,binds,ERdj3/DNAJB11 (from UniProt Q9UBS4 23-358)
11,binds,Erp29 (from UniProt P30040 33-261)
12,binds,Sec63 (from UniProt Q9UGP8 1-760)
13,binds,B1
14,binds,B2
15,binds,B3
16,binds,B4
17,binds,B5
18,binds,B6
19,binds,B7
20,binds,B8
21,binds,B9
